In patent US20170226158A1 one finds binding data, which are given here for 1 molecule.

The target in this assay is CEA6. As to the kind of experiment: phage ELISA on coated antigen. For orientation: An ELISA detects its analyte on a solid surface through an enzyme-linked reagent.

Results are given in words; binding and its absence hold for the method and conditions named. Tags and fused reporters may be left off the sequences shown.

B1: DARPin 1 (template L-Myc DARPin, net charge -13) (designed binder)
chain: DLGKKLLEAARAGQDDEVRILMANGADVNAMDQYGFTPLHLAAWYGHLEIVEVLLKHGADVNAKDVHGFTPLHLAAWTGHLEIVEVLLKNGADVNARDNEGSTPLHLAALAGHLEIVEVLLKNGADVNAQDKFGKTAFDISIDNGNEDLAEILQKL
Consider B1, for which the binding result is “no binding”.
